This note sets out measurements from PMC9852244.

These are yes or no findings as the source states them, for the method shown. Binding seen in cells or lysates may run through a third protein. Some binding calls cover weakened binding; strength is not graded here. Where a sequence is shown, tags or fusion partners need not be part of it.

Experiment [1] concerns the target T1, FLAG-tagged mouse RIPK1 (doxycycline-inducible) (mouse), Q60855.
T1 chain: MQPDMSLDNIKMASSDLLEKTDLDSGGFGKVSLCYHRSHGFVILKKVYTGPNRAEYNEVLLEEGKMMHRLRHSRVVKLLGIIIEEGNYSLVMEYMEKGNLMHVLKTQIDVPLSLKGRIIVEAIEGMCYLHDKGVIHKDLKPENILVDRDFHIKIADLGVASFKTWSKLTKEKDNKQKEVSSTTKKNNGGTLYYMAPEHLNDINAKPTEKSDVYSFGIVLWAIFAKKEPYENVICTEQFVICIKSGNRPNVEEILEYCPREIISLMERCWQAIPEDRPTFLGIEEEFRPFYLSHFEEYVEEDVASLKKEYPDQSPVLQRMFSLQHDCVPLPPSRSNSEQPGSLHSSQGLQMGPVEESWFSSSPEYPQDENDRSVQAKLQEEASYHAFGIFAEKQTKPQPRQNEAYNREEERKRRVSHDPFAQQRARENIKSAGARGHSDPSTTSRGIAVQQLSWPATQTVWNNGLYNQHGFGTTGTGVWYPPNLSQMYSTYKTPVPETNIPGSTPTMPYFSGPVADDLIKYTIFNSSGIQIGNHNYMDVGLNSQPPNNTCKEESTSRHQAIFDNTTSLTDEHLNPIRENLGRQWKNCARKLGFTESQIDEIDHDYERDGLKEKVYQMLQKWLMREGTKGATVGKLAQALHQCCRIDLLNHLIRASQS
Description: co-IP; FLAG-IP (ANTI-FLAG M2 affinity gel, 16 h at 4 °C) from lysates of Dox-induced FLAG-mRIPK1-rescued Ripk1-/- MEFs; 30 min pre-treatment with inhibitors (SM, zVAD, with or without MK2 inhibitor) followed by 120 min TNF; immunoblot. Particulars: remark: other sources report otherwise. In general terms: A western blot detects proteins with antibodies after separation by electrophoresis.

For experiment [2], the target named is T2, FLAG-tagged mouse RIPK1 (doxycycline-inducible) (mouse) (UniProt Q60855).
T2 sequence: T1 chain
The experiment is described as above.

B1: RIPK3 (endogenous, MEFs), Q9QZL0 1-486 (protein)
chain: MSSVKLWPTGASAVPLVSREELKKLEFVGKGGFGVVFRAHHRTWNHDVAVKIVNSKKISWEVKAMVNLRNENVLLLLGVTEDLQWDFVSGQALVTRFMENGSLAGLLQPECPRPWPLLCRLLQEVVLGMCYLHSLNPPLLHRDLKPSNILLDPELHAKLADFGLSTFQGGSQSGSGSGSGSRDSGGTLAYLDPELLFDVNLKASKASDVYSFGILVWAVLAGREAELVDKTSLIRETVCDRQSRPPLTELPPGSPETPGLEKLKELMIHCWGSQSENRPSFQDCEPKTNEVYNLVKDKVDAAVSEVKHYLSQHRSSGRNLSAREPSQRGTEMDCPRETMVSKMLDRLHLEEPSGPVPGKCPERQAQDTSVGPATPARTSSDPVAGTPQIPHTLPFRGTTPGPVFTETPGPHPQRNQGDGRHGTPWYPWTPPNPMTGPPALVFNNCSEVQIGNYNSLVAPPRTTASSSAKYDQAQFGRGRGWQPFHK
With B1, the binding entry in experiment [1] is “binds”.

B2: CASP8 (protein, UniProt O89110 1-480)
chain: MDFQSCLYAIAEELGSEDLAALKFLCLDYIPHKKQETIEDAQKLFLRLREKGMLEEGNLSFLKELLFHISRWDLLVNFLDCNREEMVRELRDPDNAQISPYRVMLFKLSEEVSELELRSFKFLLNNEIPKCKLEDDLSLLEIFVEMEKRTMLAENNLETLKSICDQVNKSLLGKIEDYERSSTERRMSLEGREELPPSVLDEMSLKMAELCDSPREQDSESRTSDKVYQMKNKPRGYCLIINNHDFSKAREDITQLRKMKDRKGTDCDKEALSKTFKELHFEIVSYDDCTANEIHEILEGYQSADHKNKDCFICCILSHGDKGVVYGTDGKEASIYDLTSYFTGSKCPSLSGKPKIFFIQACQGSNFQKGVPDEAGFEQQNHTLEVDSSSHKNYIPDEADFLLGMATVKNCVSYRDPVNGTWYIQSLCQSLRERCPQGDDILSILTGVNYDVSNKDDRRNKGKQMPQPTFTLRKKLFFPP
On to B2, for which the binding entry in experiment [2] is recorded as “binds”.
